# In the supplement of paper PMC4604168 (melanoma cell lines):
# Some of the results follow. Many values rest on one well or one pass, so single values are uncertain.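 The apoptosis fraction was the count of cleaved-PARP antibody-stained nuclei relative to all DNA-stained nuclei, imaged in 1,536-well plates. Screening doses were set so most cells survived, and baseline and induced cleaved-PARP levels vary greatly across cell lines.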
# Test system: UACC257
# Experiment: cleaved PARP positive nuclei fraction relative to DMSO control; melanoma cells; higher = more apoptosis
# Details: library dose: low library concentration; 72 h
row,SMILES,cleaved PARP positive nuclei fraction [%]
1,"Oc1cc(-c2nc(-c3ccccc3)[nH]c2-c2ccncc2)ccc1Cl + C/C(O)=C(\C#N)C(=O)Nc1cc(Br)ccc1Br [LFM-A13] (first compound 0.2 µM, partner dose 2 µM)",75.4
2,"C[As](C)SC[C@H](NC(=O)CC[C@H](N)C(=O)O)C(=O)NCC(=O)O [Darinaparsin] + COc1ccc2c(c1)CCC1C2CCC2(C)C(NCCCCCCN3C(=O)C=CC3=O)CCC12 [U73122] (first compound 0.4 µM, partner dose 0.4 µM)",99.8
3,"CCc1ccc(CCOc2ccc(CC3SC(=O)NC3=O)cc2)nc1 (stereo unspecified) [pioglitazone] + O=C(Oc1ccc([N+](=O)[O-])cc1)N1CCC(C(O)(c2ccc3c(c2)OCO3)c2ccc3c(c2)OCO3)CC1 [JZL184] (first compound 2 µM, partner dose 1 µM)",70.3
4,"CC1(C)NC(=O)N(c2ccc([N+](=O)[O-])c(C(F)(F)F)c2)C1=O [nilutamide] + C/C(O)=C(\C#N)C(=O)Nc1cc(Br)ccc1Br [LFM-A13] (first compound 1 µM, partner dose 2 µM)",164
5,"C[C@]12O[C@H](C[C@]1(O)CO)n1c3ccccc3c3c4c(c5c6ccccc6n2c5c31)CNC4=O [Lestaurtinib] + O=C(Oc1ccc([N+](=O)[O-])cc1)N1CCC(C(O)(c2ccc3c(c2)OCO3)c2ccc3c(c2)OCO3)CC1 [JZL184] (first compound 0.004 µM, partner dose 1 µM)",163
6,"Oc1cc(-c2nc(-c3ccccc3)[nH]c2-c2ccncc2)ccc1Cl + O=C(Oc1ccc([N+](=O)[O-])cc1)N1CCC(C(O)(c2ccc3c(c2)OCO3)c2ccc3c(c2)OCO3)CC1 [JZL184] (first compound 0.2 µM, partner dose 1 µM)",92.2
